Out of some 580,000 compounds screened, about 6,100 (1.1%) were called active. The inconclusive results got no clear call from the source; some entries with a clear call stand among them for comparison. Calls follow the shape of the dose curve; as a rule, active = well fitted inhibition curve with a large enough effect; inconclusive = small, poorly fitted or top-dose-only effect, or another doubt; inactive = no such curve, though single readings can be large or run the other way. Potencies of inconclusive entries are doubtful fits and often do not repeat.
target: Polyunsaturated fatty acid lipoxygenase ALOX12 (Homo sapiens) (UniProt P18054); experiment: Primary qHTS assay for inhibitors of human arachidonate 12S-lipoxygenase (ALOX12): Round 2; settings: purified 12hLO, xylenol orange hydroperoxide absorbance; activity change, negative = inhibition: at 108 µM (top of the series) unless noted
Summary of the method: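 Purified human 12hLO (150 nM final) in 25 mM Hepes, 0.01% Triton X-100, pH 7.0 was preincubated 15 min at room temperature with compound. Then 40 uM arachidonic acid was added, 30 min. Hydroperoxide was read by Fe-XO absorbance ratio 573/405 nm.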
% is scaled to controls: 0 for no effect and ±100 for the full control effect; potency is read from the fitted curve at half-maximal effect.

Sequences of proteins named here, by UniProt entry; tags and fusion partners are left off. A change or cut given only in a name is not applied to a line headed by its entry.
UniProt P18054: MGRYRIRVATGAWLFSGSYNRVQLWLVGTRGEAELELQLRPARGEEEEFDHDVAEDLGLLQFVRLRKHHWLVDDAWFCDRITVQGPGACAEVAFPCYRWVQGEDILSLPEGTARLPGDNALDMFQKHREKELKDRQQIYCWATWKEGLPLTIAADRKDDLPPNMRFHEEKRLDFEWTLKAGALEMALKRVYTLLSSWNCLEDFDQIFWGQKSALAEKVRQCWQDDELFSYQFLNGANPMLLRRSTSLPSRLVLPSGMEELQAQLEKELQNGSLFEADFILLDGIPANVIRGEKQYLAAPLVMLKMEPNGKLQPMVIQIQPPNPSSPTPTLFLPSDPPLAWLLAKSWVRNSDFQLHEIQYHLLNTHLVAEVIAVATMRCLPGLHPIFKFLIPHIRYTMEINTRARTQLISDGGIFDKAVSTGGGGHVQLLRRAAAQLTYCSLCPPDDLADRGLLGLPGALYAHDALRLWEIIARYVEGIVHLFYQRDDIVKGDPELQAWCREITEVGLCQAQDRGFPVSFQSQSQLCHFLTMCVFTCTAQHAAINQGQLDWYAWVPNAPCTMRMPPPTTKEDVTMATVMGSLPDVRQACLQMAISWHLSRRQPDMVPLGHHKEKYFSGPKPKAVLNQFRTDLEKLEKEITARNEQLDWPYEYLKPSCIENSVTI

Q: With `O=C(Nc1nccs1)C1CCN(S(=O)(=O)c2ccc(F)cc2)CC1` as the compound, how does the Potency read?
A: inactive

Q: Which Potency does the source give for `CCc1c(C)c(C#N)c2nc3ccccc3n2c1-n1ccnc1C` here?
A: inconclusive: 100 µM [inhibitor, single point]

Q: How did the Potency turn out when `CCCCCCC=C1CCC(CN2CCCC2)C1=O` (stereo unspecified) was run?
A: inconclusive: 35.5 µM [inhibitor, partial curve, poor fit]

Q: `CCN(CC)CC(C)NCc1ccccc1` (stereo unspecified) was tested. Which activity change, negative = inhibition did it give?
A: inactive: 1.12% [at 12.5 µM]

Q: For `COc1ccc(N(C(C)C(=O)NN=C2CCCCCCC2)S(C)(=O)=O)cc1` (stereo unspecified), which Potency is on record?
A: inactive

Q: With `C=CCn1c(SCC(C)=O)nc2scc(-c3ccco3)c2c1=O` as the compound, how does the Potency read?
A: inconclusive: 44.7 µM [inhibitor, partial curve]

Q: `O=C(NCC(c1ccco1)N1CCCC1)c1cccc(S(=O)(=O)N2CCc3ccccc32)c1` (stereo unspecified) was tested. Which Potency did it give?
A: inconclusive: 39.8 µM [inhibitor, partial curve, poor fit]

Q: For `CCc1c(C(=O)NCc2ccc3c(c2)OCO3)[nH]c(C)c1C(C)=O`, which Potency is on record?
A: inconclusive: 7.94 µM [inhibitor, partial curve, poor fit]

Q: Which Potency does the source give for `Nn1cnnc1N/N=C/c1ccccc1C(F)(F)F` here?
A: inconclusive: 3.98 µM [inhibitor, full curve, poor fit]

Q: Which Potency does the source give for `CCOC(=O)c1sc(NC(=O)CSc2n[nH]c(-c3ccccc3)n2)c(C#N)c1C` here?
A: inconclusive: 39.8 µM [inhibitor, partial curve, poor fit]

Q: For `CC(C)C(=O)Nc1nnc(SCC(=O)Nc2ccc3c(c2)OCCO3)s1`, which Potency is on record?
A: inactive

Q: With `Cc1ccc(C(=O)NCC(c2ccco2)N2CCc3ccccc3C2)cc1C` (stereo unspecified) as the compound, how does the Potency read?
A: inconclusive: 79.4 µM [inhibitor, partial curve, poor fit]

Q: How did the Potency turn out when `O=C1Nc2ccccc2CN(Cc2ccccc2)C12CCNC2` (stereo unspecified) was run?
A: inconclusive: 25.1 µM [inhibitor, full curve, poor fit]

Q: `Cc1cccc2c1N(CCOc1ccccc1Cl)C(=O)C2=O` was tested. Which Potency did it give?
A: inconclusive: 56.2 µM [inhibitor, partial curve, poor fit]

Q: For `O=C(/C=C/c1ccco1)c1ccc(NC(=O)C23CC4CC(CC(C4)C2)C3)cc1`, which Potency is on record?
A: inconclusive: 44.7 µM [inhibitor, partial curve]

Q: `Cc1ccc(S(=O)(=O)N(C)CC(=O)O/N=C(\N)c2cccnc2)cc1` was tested. Which Potency did it give?
A: inconclusive: 28.2 µM [inhibitor, single point]

Q: Which Potency does the source give for `O=C(O)CCCC(=O)OCCc1cc2ccccc2c(=O)o1` here?
A: inconclusive: 112 µM [inhibitor, single point]

Q: `COc1ccc(NC(=O)C2=NN(C3CCS(=O)(=O)C3)C(=O)CC2)cc1S(N)(=O)=O` (stereo unspecified) was tested. Which Potency did it give?
A: inconclusive: 56.2 µM [inhibitor, partial curve, poor fit]

Q: `CC1=C(c2ccc(C(C)C)cc2)S(=O)(=O)NC1=NCc1ccccc1Br` was tested. Which Potency did it give?
A: inconclusive: 5.01 µM [inhibitor, full curve, poor fit]

Q: How did the Potency turn out when `N#CC1=C(N)NC(=S)C(C(N)=O)C1c1ccc(Cl)cc1Cl` (stereo unspecified) was run?
A: inconclusive: 35.5 µM [inhibitor, partial curve, poor fit]

Q: `CN(Cc1ccccc1)Cc1nc2c(c(=O)n(C)c(=O)n2C)n1CCCc1ccccc1` was tested. Which Potency did it give?
A: inactive

Q: Which Potency does the source give for `Cc1cccc(NC(=O)COc2coc(CN3CCc4ccccc4C3)cc2=O)c1` here?
A: inconclusive: 100 µM [inhibitor, partial curve, poor fit]

Q: How did the Potency turn out when `CCCNC(=O)C1CC2Cn3c(nc4ccccc43)C2N1C` (stereo unspecified) was run?
A: inconclusive: 44.7 µM [inhibitor, partial curve, poor fit]

Q: How did the Potency turn out when `COCc1cc(CNC(=O)c2cn(C3CCC(N)CC3)nn2)[nH]n1` (stereo unspecified) was run?
A: inactive

Q: With `CCn1c2ccccc2c2cc(CN3CCN(Cc4cc(OC)ccc4O)CC3)ccc21` as the compound, how does the Potency read?
A: inconclusive: 6.31 µM [inhibitor, full curve, poor fit]

Q: With `COC(=O)Cc1ccc(NC(=S)NCc2cccc(OC)c2)cc1` as the compound, how does the Potency read?
A: inconclusive: 79.4 µM [inhibitor, partial curve, poor fit]

Q: For `O=c1[nH][nH]c(-c2ccccc2O)c1C(C[N+](=O)[O-])c1ccc(Br)cc1` (stereo unspecified), which Potency is on record?
A: inconclusive: 50.1 µM [inhibitor, partial curve, poor fit]

Q: `CCOc1ccc(-n2c(N)c(-c3nc4ccccc4n3C)c3nc4ccccc4nc32)cc1` was tested. Which Potency did it give?
A: inactive

Q: With `CN1CCN(c2nc(-c3ccoc3)nc3ccccc23)CC1` as the compound, how does the Potency read?
A: inconclusive: 50.1 µM [inhibitor, partial curve, poor fit]

Q: `COC(=O)CSc1nc2cc3c(cc2cc1C#N)OCO3` was tested. Which Potency did it give?
A: inconclusive: 158 µM [inhibitor, partial curve, poor fit]

Q: With `Cc1c(C(=O)Nc2nccs2)nnn1-c1cccc(C(F)(F)F)c1` as the compound, how does the Potency read?
A: inactive

Q: How did the Potency turn out when `C=C(C)CC(NC(C)c1ccccc1)c1ccco1` (stereo unspecified) was run?
A: inconclusive: 0.398 µM [inhibitor, full curve, poor fit]

Q: Which Potency does the source give for `Cc1ccc2oc(=O)c(/C=C(\O)c3ccco3)nc2c1` here?
A: inactive

Q: Which Potency does the source give for `CCS(=O)(=O)n1nc(-c2ccc(Cl)cc2)nc1SC` here?
A: inconclusive: 70.8 µM [inhibitor, partial curve, poor fit]

Q: With `O=C(NS(=O)(=O)c1ccccc1)c1ccccc1O` as the compound, how does the Potency read?
A: inconclusive: 35.5 µM [inhibitor, partial curve, poor fit]

Q: With `OCCCNC(=S)Nc1ccc(F)cc1` as the compound, how does the Potency read?
A: inconclusive: 141 µM [inhibitor, partial curve, poor fit]

Q: Which Potency does the source give for `Cn1c(=O)c2c(nc(NCC3CCCC(CN)C3)n2Cc2ccc(Cl)cc2Cl)n(C)c1=O` (stereo unspecified) here?
A: inactive

Q: With `CCCc1ccc(C(Nc2ccc3nnnn3n2)c2cccs2)cc1` (stereo unspecified) as the compound, how does the Potency read?
A: inconclusive: 44.7 µM [inhibitor, partial curve, poor fit]

Q: How did the Potency turn out when `CSc1nnc(-c2ccco2)n1-c1ccccc1` was run?
A: inconclusive: 63.1 µM [inhibitor, partial curve, poor fit]

Q: For `C[C@H](CO)N1C[C@H](C)[C@@H](CN(C)S(=O)(=O)c2ccccc2)Oc2c(NC(=O)Nc3ccc4c(c3)OCO4)cccc2C1=O`, which Potency is on record?
A: inconclusive: 39.8 µM [inhibitor, partial curve]

Q: `Cc1noc(C)c1C(=O)N1CCC1(C)C(=O)NS(=O)(=O)c1cccc(Cl)c1` (stereo unspecified) was tested. Which Potency did it give?
A: inconclusive: 31.6 µM [inhibitor, partial curve, poor fit]

From PubChem BioAssay AID1671190 (National Center for Advancing Translational Sciences (NCATS), 2021)
